According to publication PMC13486994:
Results are given in words; binding and its absence hold for the method and conditions named. In cells and extracts the contact can be indirect. Some results given as binding are weak or reduced against the parent protein; the word gives no strength. Each block holds one molecule with its values, some of them ahead of it.

Protein sequences, listed by entry. Tags and fused reporters are not part of them.
UniProt Q9HCE7: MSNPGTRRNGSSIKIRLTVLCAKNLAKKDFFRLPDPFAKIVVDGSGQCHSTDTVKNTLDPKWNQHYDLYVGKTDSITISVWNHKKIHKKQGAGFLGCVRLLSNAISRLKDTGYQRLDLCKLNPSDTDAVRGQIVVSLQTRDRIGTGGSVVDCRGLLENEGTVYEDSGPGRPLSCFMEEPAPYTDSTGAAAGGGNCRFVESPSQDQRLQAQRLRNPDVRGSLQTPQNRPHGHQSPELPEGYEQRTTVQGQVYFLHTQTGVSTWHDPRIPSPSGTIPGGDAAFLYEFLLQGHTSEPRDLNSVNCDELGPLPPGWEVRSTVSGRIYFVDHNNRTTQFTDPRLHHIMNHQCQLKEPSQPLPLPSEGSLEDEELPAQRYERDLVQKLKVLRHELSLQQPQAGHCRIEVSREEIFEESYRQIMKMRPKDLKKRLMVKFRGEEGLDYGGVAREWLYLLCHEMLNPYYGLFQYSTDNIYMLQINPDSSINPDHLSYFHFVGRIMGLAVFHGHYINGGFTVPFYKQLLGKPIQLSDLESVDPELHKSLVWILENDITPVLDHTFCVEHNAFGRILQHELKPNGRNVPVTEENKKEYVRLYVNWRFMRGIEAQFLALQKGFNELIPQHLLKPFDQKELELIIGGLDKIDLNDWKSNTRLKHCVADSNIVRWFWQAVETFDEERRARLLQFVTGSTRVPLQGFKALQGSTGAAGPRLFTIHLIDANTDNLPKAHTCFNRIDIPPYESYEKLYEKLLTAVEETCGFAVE
UniProt Q9BXK1: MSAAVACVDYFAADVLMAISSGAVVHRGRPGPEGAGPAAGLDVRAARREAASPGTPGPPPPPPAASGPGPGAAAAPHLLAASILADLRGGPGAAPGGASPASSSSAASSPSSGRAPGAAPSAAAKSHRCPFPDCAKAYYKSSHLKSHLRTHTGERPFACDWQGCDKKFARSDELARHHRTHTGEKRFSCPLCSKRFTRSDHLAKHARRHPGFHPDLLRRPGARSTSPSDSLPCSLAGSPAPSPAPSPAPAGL

Legend:
[1] = biological target: SMAD-specific E3 ubiquitin protein ligase 1 (SMURF1) (human (in lysate of human GC cells)) (UniProt Q9HCE7); experiment: co-IP; co-immunoprecipitation from GC cell lysates; antibodies on protein A/G magnetic beads, 4 °C, 12 h; Western blot (Fig. S4C); bait and cell line not given
[2] = biological target: T1, ring finger protein 180 (RNF180) (human (in lysate of human GC cells)) (UniProt Q86T96); experiment: as above
T1 sequence: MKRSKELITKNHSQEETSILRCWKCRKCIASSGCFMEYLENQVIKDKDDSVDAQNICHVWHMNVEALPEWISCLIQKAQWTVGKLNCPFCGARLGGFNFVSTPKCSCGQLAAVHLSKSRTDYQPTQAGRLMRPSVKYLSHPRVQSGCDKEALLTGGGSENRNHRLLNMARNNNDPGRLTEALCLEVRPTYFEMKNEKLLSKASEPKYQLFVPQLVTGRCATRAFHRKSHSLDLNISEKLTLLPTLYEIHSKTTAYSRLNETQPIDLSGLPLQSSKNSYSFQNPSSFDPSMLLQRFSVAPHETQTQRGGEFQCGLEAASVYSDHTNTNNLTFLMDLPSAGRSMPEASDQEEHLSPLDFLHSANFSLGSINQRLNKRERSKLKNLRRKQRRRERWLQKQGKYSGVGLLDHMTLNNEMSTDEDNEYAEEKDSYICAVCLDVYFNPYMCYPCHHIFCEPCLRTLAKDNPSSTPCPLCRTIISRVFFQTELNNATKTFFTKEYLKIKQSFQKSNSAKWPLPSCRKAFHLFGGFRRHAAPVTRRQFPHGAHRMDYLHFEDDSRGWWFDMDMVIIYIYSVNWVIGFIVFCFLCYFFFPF

[3] = biological target: T2, phospholipase C beta 1 (PLCB1) (human (endogenous in AGS and MKN-74)) (UniProt Q9NQ66); experiment: co-IP; reciprocal co-immunoprecipitation of endogenous proteins from whole-cell lysates of AGS and MKN-74 cells; antibodies on protein A/G magnetic beads, 4 °C, 12 h; Western blot
T2 sequence: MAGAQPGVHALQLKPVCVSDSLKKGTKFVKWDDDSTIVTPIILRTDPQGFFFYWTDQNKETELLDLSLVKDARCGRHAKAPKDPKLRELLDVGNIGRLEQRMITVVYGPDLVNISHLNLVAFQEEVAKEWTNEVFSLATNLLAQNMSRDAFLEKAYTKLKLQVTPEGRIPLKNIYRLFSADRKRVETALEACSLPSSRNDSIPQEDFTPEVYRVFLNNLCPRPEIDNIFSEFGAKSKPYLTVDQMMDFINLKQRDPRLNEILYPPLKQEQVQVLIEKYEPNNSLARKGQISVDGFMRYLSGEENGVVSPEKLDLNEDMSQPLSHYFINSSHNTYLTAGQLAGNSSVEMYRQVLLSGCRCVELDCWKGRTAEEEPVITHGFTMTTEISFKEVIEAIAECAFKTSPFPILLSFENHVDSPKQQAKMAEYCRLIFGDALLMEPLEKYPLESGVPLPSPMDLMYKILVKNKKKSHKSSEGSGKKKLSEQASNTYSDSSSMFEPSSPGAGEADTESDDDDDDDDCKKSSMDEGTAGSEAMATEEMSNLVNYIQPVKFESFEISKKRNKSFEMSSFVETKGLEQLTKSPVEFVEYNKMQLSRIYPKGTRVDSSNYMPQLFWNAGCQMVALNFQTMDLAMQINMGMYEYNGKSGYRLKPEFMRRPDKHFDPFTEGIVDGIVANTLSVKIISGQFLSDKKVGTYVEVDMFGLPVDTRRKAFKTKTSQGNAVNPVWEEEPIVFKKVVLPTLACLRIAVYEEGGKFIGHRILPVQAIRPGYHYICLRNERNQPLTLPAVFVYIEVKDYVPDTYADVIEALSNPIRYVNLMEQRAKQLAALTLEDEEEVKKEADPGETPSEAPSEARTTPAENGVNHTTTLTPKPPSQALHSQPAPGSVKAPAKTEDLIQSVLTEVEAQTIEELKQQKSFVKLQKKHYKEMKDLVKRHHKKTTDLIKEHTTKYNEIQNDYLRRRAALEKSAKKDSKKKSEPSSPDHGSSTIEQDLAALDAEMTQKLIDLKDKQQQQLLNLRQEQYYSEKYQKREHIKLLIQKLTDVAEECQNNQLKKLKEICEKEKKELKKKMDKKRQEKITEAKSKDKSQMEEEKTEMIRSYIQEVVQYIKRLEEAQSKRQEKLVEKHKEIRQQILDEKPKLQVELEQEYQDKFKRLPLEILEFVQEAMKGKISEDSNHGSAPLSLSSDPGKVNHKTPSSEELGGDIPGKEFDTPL

[4] = biological target: protein kinase C alpha (PRKCA) (human (endogenous in AGS and MKN-74)) (UniProt P17252); experiment: as above

binding [1]: binds
binding [2]: binds
Molecule: Kruppel-like factor 16 (KLF16) (from UniProt Q9BXK1 1-252)

binding [3]: binds
Molecule: protein kinase C alpha (PRKCA) (from UniProt P17252 1-672)

binding [4]: binds
B1: phospholipase C beta 1 (PLCB1) (protein, UniProt Q9NQ66 1-1216)
chain: MAGAQPGVHALQLKPVCVSDSLKKGTKFVKWDDDSTIVTPIILRTDPQGFFFYWTDQNKETELLDLSLVKDARCGRHAKAPKDPKLRELLDVGNIGRLEQRMITVVYGPDLVNISHLNLVAFQEEVAKEWTNEVFSLATNLLAQNMSRDAFLEKAYTKLKLQVTPEGRIPLKNIYRLFSADRKRVETALEACSLPSSRNDSIPQEDFTPEVYRVFLNNLCPRPEIDNIFSEFGAKSKPYLTVDQMMDFINLKQRDPRLNEILYPPLKQEQVQVLIEKYEPNNSLARKGQISVDGFMRYLSGEENGVVSPEKLDLNEDMSQPLSHYFINSSHNTYLTAGQLAGNSSVEMYRQVLLSGCRCVELDCWKGRTAEEEPVITHGFTMTTEISFKEVIEAIAECAFKTSPFPILLSFENHVDSPKQQAKMAEYCRLIFGDALLMEPLEKYPLESGVPLPSPMDLMYKILVKNKKKSHKSSEGSGKKKLSEQASNTYSDSSSMFEPSSPGAGEADTESDDDDDDDDCKKSSMDEGTAGSEAMATEEMSNLVNYIQPVKFESFEISKKRNKSFEMSSFVETKGLEQLTKSPVEFVEYNKMQLSRIYPKGTRVDSSNYMPQLFWNAGCQMVALNFQTMDLAMQINMGMYEYNGKSGYRLKPEFMRRPDKHFDPFTEGIVDGIVANTLSVKIISGQFLSDKKVGTYVEVDMFGLPVDTRRKAFKTKTSQGNAVNPVWEEEPIVFKKVVLPTLACLRIAVYEEGGKFIGHRILPVQAIRPGYHYICLRNERNQPLTLPAVFVYIEVKDYVPDTYADVIEALSNPIRYVNLMEQRAKQLAALTLEDEEEVKKEADPGETPSEAPSEARTTPAENGVNHTTTLTPKPPSQALHSQPAPGSVKAPAKTEDLIQSVLTEVEAQTIEELKQQKSFVKLQKKHYKEMKDLVKRHHKKTTDLIKEHTTKYNEIQNDYLRRRAALEKSAKKDSKKKSEPSSPDHGSSTIEQDLAALDAEMTQKLIDLKDKQQQQLLNLRQEQYYSEKYQKREHIKLLIQKLTDVAEECQNNQLKKLKEICEKEKKELKKKMDKKRQEKITEAKSKDKSQMEEEKTEMIRSYIQEVVQYIKRLEEAQSKRQEKLVEKHKEIRQQILDEKPKLQVELEQEYQDKFKRLPLEILEFVQEAMKGKISEDSNHGSAPLSLSSDPGKVNHKTPSSEELGGDIPGKEFDTPL
